PMC2581630, “S-Nitrosylation of Surfactant Protein-D Controls Inflammatory Function” (PLoS Biology, 2008)
No constants are given. Whether binding was seen depends on the method and setting. Some entries that bind do so weakly or less than the wild type.

B1: SP-D in bronchoalveolar lavage (BAL) of Sprague-Dawley rats (protein, UniProt P35248 20-374)
chain: AEMKTLSQRSITNTCTLVLCSPTENGLPGRDGRDGREGPRGEKGDPGLPGPMGLSGLPGPRGPVGPKGENGSAGEPGPKGERGLVGPPGSPGISGPAGKEGPSGKQGNIGPQGKPGPKGEAGPKGEVGAPGMQGSAGAKGPAGPKGERGAPGEQGAPGNAGAAGPAGPAGPQGAPGSRGPPGLKGDRGAPGDRGIKGESGLPDSAALRQQMEALNGKLQRLEAAFSRYKKAALFPDGQSVGDKIFRAANSEEPFEDAKEMCRQAGGQLASPRSATENAAVQQLVTAHSKAAFLSMTDVGTEGKFTYPTGEALVYSNWAPGEPNNNGGAENCVEIFTNGQWNDKACGEQRLVICEF
B2: rat recombinant SP-D (surfactant protein D) (natural protein, UniProt P35248 20-374, looked up)
chain: B1 chain
notes: surfactant protein D (SP-D), rat, recombinant; It has the N-terminal cysteines 15 and 20 and the head domain, so it is probably the whole mature chain; also called rSP-D; RrSP-D; source: recombinant

Columns and labels:
[1] = target: SP-D in bronchoalveolar lavage (BAL) of Sprague-Dawley rats (rat (endogenous in BAL of Sprague-Dawley rats)) (UniProt P35248); experiment: native gel or EMSA; BAL of untreated (control), saline- or bleomycin-treated (8 U/kg) Sprague-Dawley rats, day 4; native gel and Western blot for SP-D
[2] = target: rat recombinant SP-D (surfactant protein D) (rat) (UniProt P35248); experiment: condition: only denatured in SDS with dithiothreitol or β-mercaptoethanol; reducing SDS-PAGE with Western blot; recombinant proteins denatured with mercaptoethanol or dithiothreitol, SDS-PAGE, Western blot with SP-D antibody; both purified

Row | Binder | binding [1] | binding [2]
1 | B1 | binds | 
2 | B2 |  | no binding
